# At least one structure is not confirmed: it was looked up by name or label, or the drawing left a doubt.
# Test system: propranolol antiserum (produced in Example 1)
# Test: Specificity (cross-reactivity) of the antiserum of Example 1: inhibition of 3H propranolol-antibody complex formation (radioimmunoassay)
# Type: binding, rabbit
# Settings: highest amount tested without effect
# Method: Five New Zealand White rabbits were injected with an emulsion of the antigen as follows. For each animal, a solution was prepared consisting of 1 mg. of antigen dissolved in 0.8 ml. of 0.01M phosphate buffered saline at pH 7.4 and emulsified with 1.0 ml. of complete Freund's adjuvant. One hundred microliters of this emulsion was injected subcutaneously into each of the hind toe pads with the remainder divided between the hindquarters intramuscularly. One week later the animals were boosted with the same formulation, and additional boosts were administered at montly intervals thereafter. […] Bleedings were taken from the central ear artery seven to ten days after each boost, and weekly once the titre was sufficient. Blood was allowed to clot overnight at 4° C. and centrifuged to separate antiserum.
# Radioactive dl-[4-^3 H]-propranolol with a specific activity of 21 C./mMol was obtained from the Radiochemical Center Amersham. […]
# Each tube was treated with one ml. of cold dextran-coated charcoal suspension and vortexed briefly, then incubated at 0° C. for 7-10 minutes prior to centrifugation at 5000 RPM in a refrigerated centriguge for 25 minutes. The supernatants were decanted into suitably labelled scintillation vials, dissolved in 10 ml. of counting cocktail and counted for 1-5 minutes. […]
compound,measurement,value
O=C(O)C(O)COc1cccc2ccccc12 (stereo not shown) [Naphthoxy Lactic Acid],ID50 (amount of compound giving 50% inhibition of 3H-propranolol binding to antiserum),> 50 micrograms

# Reference: patent US4795715A, “Aminoalkoxy or carboxyalkoxy derivatives of propranolol for immunoassay applications” (Drug Science Foundation, priority 1986, dated 1989)
